Assay results published in PubChem BioAssay AID1259354 (Paczesny and Yang Labs, IUPUI and University of Michigan, 2018).
The campaign covered roughly 78,000 compounds. About 1,800 (2.3%) were called active. The inconclusive results got no clear call from the source; some entries with a clear call stand among them for comparison. No stated cut-off is given here; in the data, active means inhibition above about 30%; inconclusive means mostly about 10% to 28%; inactive means weaker than that.

Protein sequences, listed by entry. Tags and fused reporters are not part of them. Lines headed by an entry give the natural chain unless they say otherwise; changes in a name come on top.
UniProt Q01638: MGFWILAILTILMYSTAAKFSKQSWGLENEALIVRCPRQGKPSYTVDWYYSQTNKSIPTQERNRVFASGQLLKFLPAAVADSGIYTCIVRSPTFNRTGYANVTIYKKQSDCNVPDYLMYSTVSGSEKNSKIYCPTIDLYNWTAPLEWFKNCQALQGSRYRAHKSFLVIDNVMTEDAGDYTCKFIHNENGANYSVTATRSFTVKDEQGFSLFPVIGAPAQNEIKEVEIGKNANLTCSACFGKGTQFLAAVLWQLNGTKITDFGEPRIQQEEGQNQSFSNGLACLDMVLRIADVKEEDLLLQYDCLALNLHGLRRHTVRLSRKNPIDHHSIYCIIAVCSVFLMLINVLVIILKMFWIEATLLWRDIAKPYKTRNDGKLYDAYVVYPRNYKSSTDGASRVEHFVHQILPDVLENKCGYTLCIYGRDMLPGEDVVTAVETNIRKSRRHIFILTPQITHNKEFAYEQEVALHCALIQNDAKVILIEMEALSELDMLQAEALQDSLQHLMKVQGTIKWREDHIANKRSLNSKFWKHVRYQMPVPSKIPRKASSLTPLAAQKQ

What follows are molecules tested against Interleukin-1 receptor-like 1 (Homo sapiens) (UniProt Q01638) (assay: blocks human ST2 binding to IL-33, primary screen, biochemical, AlphaLISA (AID 1259354)). Details: AlphaLISA ST2-Fc/biotin-IL-33 interaction, 1 h; at 17 µM, stronger effect = higher value.

Row | SMILES | inhibition
1 | Cc1cccn2c(=O)c3cc(C(=O)N4CC(C)OC(C)C4)n(C)c3nc12 (stereo unspecified) | inactive
2 | COCCNc1nc(Cc2ccccc2)nc2sc3c(c12)CCCC3 | inconclusive: 12%
3 | Cc1ccc2nsnc2c1S(=O)(=O)Nc1ccccc1C(=O)O | inconclusive: 15%
4 | CCn1nc(C)c(CNC(=O)c2ccc(OC3CCN(C(=O)COC)CC3)cc2)c1C | inconclusive: 12%
5 | CCc1cn[nH]c1C1CCCN(C(=O)c2cnc(-c3cccnc3)nc2)C1 (stereo unspecified) | inconclusive: 16%
6 | CC1(C)CC(CCNC(=O)C2(N)CC2)(c2ccccc2)CCO1 (stereo unspecified) | inconclusive: 19%
7 | COc1c(S(=O)(=O)N2CCN(c3ccc(F)cc3)CC2)ccc(Cl)c1Cl | inconclusive: 20%
8 | COc1ccc(N2CCN(Cc3ccc(-c4ccn[nH]4)o3)C(C)C2)cc1 (stereo unspecified) | inconclusive: 18%
9 | O=C1NC(=Nc2cccc(Br)c2)SC1(CO)CO | inactive
10 | CCCCN(C)C(=O)c1cc2cc3ccc(OC)cc3nc2o1 | inconclusive: 10%
11 | CCN(c1cccc(C)c1)S(=O)(=O)c1ccc2oc(C(=O)O)c(C)c2c1 | inactive
12 | O=C(/C=C/c1nc2ccccc2[nH]1)NC(=O)c1ccccc1O | inconclusive: 13%
13 | Cc1nn(CCCC(=O)Nc2cc(Br)ccc2O)c(C)c1[N+](=O)[O-] | inactive
14 | COc1ccccc1C(=O)N/C(=C\c1ccc2c(c1)OCO2)C(=O)N1CCCCC1 | inconclusive: 12%
15 | C#CCN(C)CCCOc1ccc(Cl)cc1Cl | inconclusive: 14%
16 | Cc1cc(C(=O)O)c(NC(=O)c2ccccc2)s1 | inactive
17 | CCc1oc2c(-n3cnnc3)cccc2c1C | inconclusive: 10%
18 | CCOC(=O)CSc1nc2c(sc3ccccc32)c(=O)n1Cc1ccco1 | inconclusive: 11%
19 | C=C1C(=O)OC2C1CCC(=C)C1CC(OC(C)=O)C(=C)C12 (stereo unspecified) | inconclusive: 13%
20 | c1ccc(-c2nonc2-c2ccccc2)cc1 | inconclusive: 14%
21 | Cc1cc(C)c(S(=O)(=O)N2CCCCC2C(=O)O)c(C)c1 (stereo unspecified) | inconclusive: 14%
22 | O=C1CCC(=O)N1c1ccc(S(=O)(=O)c2ccc(N3C(=O)CCC3=O)cc2)cc1 | inconclusive: 10%
23 | CC(=O)Nc1ccc(CN2C[C@H](O)C[C@H]2c2nc(CS(=O)(=O)c3ccc(F)cc3)no2)cc1 | active: 74%
24 | CN(Cc1cccc2ncccc12)C(=O)CC1C(=O)NCCN1Cc1cccc(F)c1 (stereo unspecified) | inactive

Row | SMILES | inhibition
25 | Cc1ccc([N+](=O)[O-])cc1S(=O)(=O)N1CCC(Cc2ccccc2)CC1 | inconclusive: 28%
26 | O=[N+]([O-])c1ccccc1S(=O)(=O)Nc1ccccn1 | inactive
27 | O=C(Cc1ccccc1)Nc1c(C(=O)Nc2ccc(F)cc2)oc2ccccc12 | inactive
28 | CC1=C[C@@H](CNS(C)(=O)=O)[C@H](C(C)C)C[C@H]1Cc1nnc(-c2cncn2C)o1 | inconclusive: 21%
29 | COc1cccc(NS(=O)(=O)c2ccc3c(c2)c(=O)n(C)c(=O)n3C)c1 | inactive
30 | CC(=O)c1c(C)oc2ccc(N(C(C)=O)S(=O)(=O)c3ccc(C(C)(C)C)cc3)cc12 | inconclusive: 13%
31 | CCc1nnc(NC(=O)c2cc3c(s2)-c2c(C)cccc2OC3)s1 | inactive
32 | CN(C)CCC(=O)N1c2ccccc2Sc2ccc(Cl)cc21 | inconclusive: 21%
33 | COc1ccc(-c2noc(CN3CCCC(c4ccc(Cl)cc4)C3)n2)c(OC)c1OC (stereo unspecified) | inactive
34 | CCc1nc([C@H]2CN(C)C[C@@H]2C(=O)N2CCc3ccccc3C2)c(C)[nH]1 | inactive
35 | Cc1cc2ccccc2n1CCNC(=O)C1CCCCC1 | inconclusive: 15%
36 | Fc1ccc(C2Nc3ccc(F)cc3C3C=CCC32)cc1 (stereo unspecified) | inconclusive: 24%
37 | CC1=C[C@@H](CNC(=O)Nc2ccccc2)[C@H](C(C)C)C[C@H]1CC(=O)N1CCCC1 | inconclusive: 10%
38 | C/C(=C/c1nsc(Nc2ccc(Cl)cc2)n1)NC1CC(C)(C)NC(C)(C)C1 | inactive
39 | O=c1oc2ccc(Br)cc2cc1-c1cn2c(n1)sc1ccccc12 | inconclusive: 12%
40 | N#Cc1c(N)n(CCN2CCOCC2)c2nc3ccccc3nc12 | active: 36%
41 | Cc1ccsc1[C@@H]1CCN(C(=O)CCC(=O)N2CCCCCC2)C[C@H]1O | inconclusive: 18%
42 | O=C(NCC1COc2ccccc2O1)c1ccc(NC(=O)C2CCCO2)cc1 (stereo unspecified) | inconclusive: 18%
43 | CCc1nccn1S(=O)(=O)c1ccc(Br)cc1Br | inconclusive: 14%
44 | C=CC[C@@H]1CC=C[C@@H](C)N1C(=O)COc1cccc(NC(=O)CC)c1 | inconclusive: 15%
45 | Cc1ccc2[nH]c3c(c2c1)CCCC3C(=O)O (stereo unspecified) | inconclusive: 19%
46 | OCc1ccc(-c2nccn2CCc2cnn(-c3ccccc3)c2)o1 | inconclusive: 12%
47 | Cc1ccc(C(c2sc3nc(C)nn3c2O)N2CCCC(C)C2)cc1 (stereo unspecified) | inconclusive: 17%
48 | O=C(Nc1nnc(N=Cc2ccc([N+](=O)[O-])s2)s1)c1ccccc1[N+](=O)[O-] | inconclusive: 16%

Quoted from the listing.
inhibition with CCc1nc([C@H]2CN(C)C[C@@H]2C(=O)N2CCc3ccccc3C2)c(C)[nH]1 reads inactive
inhibition with O=C(NCC1COc2ccccc2O1)c1ccc(NC(=O)C2CCCO2)cc1 (stereo unspecified) reads inconclusive: 18%
inhibition with CC(=O)c1c(C)oc2ccc(N(C(C)=O)S(=O)(=O)c3ccc(C(C)(C)C)cc3)cc12 reads inconclusive: 13%

Following part:

Row | SMILES | inhibition
49 | Cc1c(Cl)cccc1NC(=O)c1ccc2c(c1)C(=O)N(CC1CCCO1)C2=O (stereo unspecified) | inconclusive: 25%
50 | COc1ccccc1-c1ccc2ccccc2n1 | inactive
51 | COc1ccc(C(=O)Nc2ccc(Br)c3cccnc23)cc1 | inconclusive: 20%
52 | CN(CCc1ccccn1)c1ncccc1CNC(=O)c1cnc2ccccn12 | inconclusive: 14%
53 | Cc1ccc(/C=C2/Sc3ccccc3N(CC(=O)NCc3ccccn3)C2=O)cc1 | active: 32%
54 | COc1cc(NCc2ccccc2CN(C)C)ncn1 | inconclusive: 23%
55 | CCOC(=O)CN1CCC(Cc2n[nH]c(=O)n2CC)CC1 | inconclusive: 14%
56 | Cc1cc(OCC(=O)NCc2cccnc2)cc(C)c1Br | inactive
57 | COc1ccc(-n2c(N)c(C#N)c3nc4ccccc4nc32)cc1Cl | inconclusive: 24%
58 | NC(=O)C(=O)Nc1ccc(Cl)c(Cl)c1 | inconclusive: 14%
59 | CN(C)CC1(O)CCN(C(=O)c2cccc(-c3ncc[nH]3)c2)C1 (stereo unspecified) | inconclusive: 10%
60 | Cc1nc(N2CCCC2C(=O)NC2Cc3ccccc3C2)nc2cc(S(C)(=O)=O)ccc12 (stereo unspecified) | inconclusive: 15%
61 | O=C(CCCn1cnnn1)N1C[C@H]2CC=CC[C@H]2C1 | inactive
62 | CCOC(=O)C1C(=O)C=C(c2ccc(F)cc2)CC1c1ccccc1OCC (stereo unspecified) | inconclusive: 11%
63 | Cc1cc(-c2ccc(C(C)N3CCCCC3)cc2)cnc1N (stereo unspecified) | inconclusive: 19%
64 | COc1ccc([N+](=O)[O-])cc1NC(=O)CCc1nc(-c2ccccc2F)no1 | inactive
65 | O=C(Cn1c(=O)sc2ccccc21)Nc1ccccc1C(=O)O | inconclusive: 24%
66 | CSc1ccc(CN2CCC(N3CCN(CCO)CC3)CC2)cc1 | inconclusive: 22%
67 | CCCCN(C)C(=O)c1sc2nc(C)nc(N3CCOCC3)c2c1C | inactive
68 | CC(C)Oc1cccc(C(=O)C2CCCN(Cc3ccc(Oc4ncccn4)cc3)C2)c1 (stereo unspecified) | inconclusive: 17%
69 | O=C(CCc1ccc2c(c1)OCO2)N[C@@H]1c2ccccc2C2(CCNCC2)[C@H]1O | inconclusive: 10%
70 | Fc1ccc(-c2cc(C(F)(F)F)nc(-n3ccnc3)n2)cc1 | inactive
71 | Cc1ccccc1CC(C1CCN(C(=O)c2ccc3ccccc3c2)CC1)N(C)C(=O)C1CCC1 (stereo unspecified) | inconclusive: 17%
72 | N#Cc1ccc(CNC(=O)[C@@H]2Cc3nc[nH]c3CN2CC2CCCCC2)cc1 | inconclusive: 13%

Row | SMILES | inhibition
73 | O=C(c1csc(S(=O)(=O)N2CCCCC2)c1)N1CCCC1 | inconclusive: 10%
74 | Cc1c(NC(=O)c2cccc(I)c2)cccc1[N+](=O)[O-] | inactive
75 | CCC(CC)n1ncc(C)c1NC(=O)c1nc2nc(C)cc(C)n2n1 | inconclusive: 13%
76 | O=C(O)CCCc1nc2ccccc2[nH]1 | inconclusive: 17%
77 | Cc1nc2c(ccc3nc(NC(=O)c4ccccc4)sc32)s1 | inactive
78 | COCCNC(=O)[C@@H](C)[C@@H]1CCc2c(C)cc(OCCOC)c(C)c2[C@@H]1O | inconclusive: 18%
79 | COCC(=O)O[C@]1(CCN(C)CCCc2nc3ccccc3[nH]2)CCc2cc(F)ccc2[C@@H]1C(C)C | inconclusive: 18%
80 | CC(C)NC(=O)C1(O)c2ccccc2NC(=O)N1c1c(F)cccc1F (stereo unspecified) | inactive
81 | CCOC(=O)c1nn(CCc2ccc(OC)cc2)c2c1CN(CCC(=O)OC)CC2 | inactive
82 | Cc1ccc(F)cc1NC(=O)c1ccccc1C | inactive
83 | c1cnc2c(-c3nccn3CCc3cnc[nH]3)cccc2c1 | inconclusive: 11%
84 | CCn1c(=O)cc(O)c2ccccc21 | active: 85%
85 | O=[N+]([O-])c1cc(Nc2ccccc2)c(C=Nc2ccccc2)c([N+](=O)[O-])c1 | active: 66%
86 | CCc1ccc(C2=C(C)C(=O)N(CC(=O)NCc3cccs3)S2(=O)=O)cc1 | inactive
87 | O=[N+]([O-])c1cc2c(cc1CC1CC1(Cl)Cl)OCCO2 (stereo unspecified) | inconclusive: 19%
88 | CCN1CCN(CC(=O)N2CCCc3c2c(=O)oc2ccc(O)cc32)CC1 | inconclusive: 20%
89 | CCC(Cn1ccnc1)NC(=O)c1ccc(=O)[nH]c1 (stereo unspecified) | inconclusive: 16%
90 | CC(=O)c1ccc(NC(=O)N[C@H]2CCN3C(=O)[C@@H](Cc4ccccc4)NC(=O)[C@H]23)cc1 | inconclusive: 13%
91 | COC(=O)C1=C(C)Nc2nc(SCc3ccccc3)[nH]c(=O)c2C1c1ccc(F)cc1 (stereo unspecified) | inactive
92 | NC1=NC(=O)C(CC(=O)c2ccc(Cl)cc2)S1 (stereo unspecified) | inconclusive: 11%
93 | CCOc1ccc2ccccc2c1CN1CCCC(N2CCCC2=O)C1 (stereo unspecified) | inactive
94 | Cc1ccc(C(=O)N2CCN=C2SCc2cccnc2)cc1 | inconclusive: 15%
95 | CCC1CCCCN1C(=O)C1CCCCC1 (stereo unspecified) | inactive
96 | O=C1c2ccccc2C(=O)N1C1C(=O)N(c2ccc(Cl)cc2)C1c1ccc(F)cc1 (stereo unspecified) | inconclusive: 10%

Shown with tabs: part of the list above
Row	SMILES	inhibition
91	COC(=O)C1=C(C)Nc2nc(SCc3ccccc3)[nH]c(=O)c2C1c1ccc(F)cc1 (stereo unspecified)	inactive
92	NC1=NC(=O)C(CC(=O)c2ccc(Cl)cc2)S1 (stereo unspecified)	inconclusive: 11%
